Results: US20120329784A1, “COMPOUNDS AND METHODS” (priority 2010, published 2012)
Where a name gives a salt, the structure may show the parent alone. Some entries share one result that the patent states for a list of compounds.

Biological target: T1, Full length human TNNI3K (hTNNI3K) (Homo sapiens, UniProt Q59H18)
T1 construct: His-MBP-TEV-Full length human TNNI3K (hTNNI3K); His (N); MBP (N); TEV cleavage site (N); made in house; host or cells: baculovirus expression system (printed 'Baculokinase system')
T1 sequence (Q59H18 1-835): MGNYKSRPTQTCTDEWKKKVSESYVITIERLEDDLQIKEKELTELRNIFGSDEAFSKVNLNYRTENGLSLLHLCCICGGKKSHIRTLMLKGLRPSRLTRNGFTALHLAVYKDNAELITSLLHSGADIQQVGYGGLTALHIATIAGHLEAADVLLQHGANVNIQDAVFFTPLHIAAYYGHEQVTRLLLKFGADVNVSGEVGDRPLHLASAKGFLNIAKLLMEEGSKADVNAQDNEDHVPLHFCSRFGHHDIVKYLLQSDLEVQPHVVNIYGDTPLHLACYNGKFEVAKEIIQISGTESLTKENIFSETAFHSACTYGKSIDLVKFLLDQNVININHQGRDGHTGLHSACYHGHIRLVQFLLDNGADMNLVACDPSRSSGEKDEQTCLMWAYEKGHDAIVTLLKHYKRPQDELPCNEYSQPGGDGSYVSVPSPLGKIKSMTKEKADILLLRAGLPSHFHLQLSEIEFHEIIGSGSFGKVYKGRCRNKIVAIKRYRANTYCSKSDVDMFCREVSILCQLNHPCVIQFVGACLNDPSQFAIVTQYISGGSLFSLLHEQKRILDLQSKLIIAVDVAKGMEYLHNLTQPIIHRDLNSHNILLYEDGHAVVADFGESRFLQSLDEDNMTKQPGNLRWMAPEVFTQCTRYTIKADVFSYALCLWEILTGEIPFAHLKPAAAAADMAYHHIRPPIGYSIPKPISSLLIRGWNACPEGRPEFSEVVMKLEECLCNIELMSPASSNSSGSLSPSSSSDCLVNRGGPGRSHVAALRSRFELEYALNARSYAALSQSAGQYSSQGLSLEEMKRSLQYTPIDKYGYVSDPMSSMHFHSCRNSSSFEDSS
Test: Fluorescent polarization assay of compound inhibition on hTNNI3K ATP binding (Biological Assay Method I)
Settings: mean of a minimum of 2 experiments; displacement of fluorescent ligand from hTNNI3K ATP binding pocket; 60 min at rt

pXC50, ≥ 6.0:
CNS(=O)(=O)c1ccc(S(C)(=O)=O)c(Nc2cc(Nc3ccc4ncsc4c3)ncn2)c1 [Example 197, 3-[6-(benzothiazol-6-ylamino)-pyrimidin-4-ylamino]-4-methanesulfonyl-N-methyl-benzenesulfonamide]
CNS(=O)(=O)c1ccc(S(=O)(=O)C(C)(C)C)c(Nc2cc(Nc3ccc(Cl)cc3)ncn2)c1 [Example 135, 4-(tert-butylsulfonyl)-3-(6-(4-chlorophenylamino)pyrimidin-4-ylamino)-N-methylbenzenesulfonamide trifluoroacetate]
CNS(=O)(=O)c1cc(Nc2cc(Nc3ccc(Cl)cc3)ncn2)c(OCC(F)(F)F)cc1F [Example 22, 5-(6-(4-chlorophenylamino)pyrimidin-4-ylamino)-2-fluoro-N-methyl-4-(2,2,2-trifluoroethoxy)benzenesulfonamide trifluoroacetate]
CNS(=O)(=O)c1cccc(Nc2cc(Nc3cccc(-c4ccc(N(C)C)cc4)c3)ncn2)c1 [Example 339, 3-[(6-{[4′-(dimethylamino)-3-biphenylyl]amino}-4-pyrimidinyl)amino]-N-methylbenzenesulfonamide]
CNS(=O)(=O)c1ccc(S(=O)(=O)C(C)C)c(Nc2cc(Nc3ccc(Cl)cc3)ncn2)c1 [Example 192, 3-[6-(4-chloro-phenylamino)-pyrimidin-4-ylamino]-N-methyl-4-(propane-2-sulfonyl)-benzenesulfonamide]
CNS(=O)(=O)c1ccc(SC)c(Nc2cc(Nc3ccc(Cl)cn3)ncn2)c1 [Example 289, 3-({6-[(5-chloro-2-pyridinyl)amino]-4-pyrimidinyl}amino)-N-methyl-4-(methylthio)benzenesulfonamide trifluoroacetate]
CNS(=O)(=O)c1cccc(Nc2cc(Nc3ncc(C(=O)O)s3)ncn2)c1 [Example 325, 2-{[6-({3-[(methylamino)sulfonyl]phenyl}amino)-4-pyrimidinyl]amino}-1,3-thiazole-5-carboxylic acid]
CNS(=O)(=O)c1cc(Nc2cc(Nc3ccc(Cl)cc3)ncn2)ccc1F [Example 203, 5-({6-[(4-chlorophenyl)amino]-4-pyrimidinyl}amino)-2-fluoro-N-methylbenzenesulfonamide]
CNS(=O)(=O)c1ccc(SCC(F)(F)F)c(Nc2cc(Nc3ccc(OCC(F)(F)F)cc3)ncn2)c1 [Example 266, N-methyl-3-{[6-({4-[(2,2,2-trifluoroethyl)oxy]phenyl}amino)-4-pyrimidinyl]amino}-4-[(2,2,2-trifluoroethyl)thio]benzenesulfonamide trifluoroacetate]
CNS(=O)(=O)c1ccc(SC)c(Nc2cc(Nc3ccc4c(C)cc(=O)oc4c3)ncn2)c1 [Example 168, N-methyl-3-[6-(4-methyl-2-oxo-2H-chromen-7-ylamino)-pyrimidin-4-ylamino]-4-methylsulfanyl-benzenesulfonamide trifluoroacetate]
CNS(=O)(=O)c1cccc(Nc2cc(Nc3ccc(Cl)c(-c4cccc(N5CCOCC5)c4)c3)ncn2)c1 [Example 348, 3-[(6-{[6-chloro-3′-(4-morpholinyl)-3-biphenylyl]amino}-4-pyrimidinyl)amino]-N-methylbenzenesulfonamide]
CNS(=O)(=O)c1ccc(SC)c(Nc2cc(Nc3ccc4ncccc4c3)ncn2)c1 [Example 156, N-methyl-4-methylsulfanyl-3-[6-(quinolin-6-ylamino)-pyrimidin-4-ylamino]-benzenesulfonamide trifluoroacetate]
CNS(=O)(=O)c1ccc(OC(C)C(F)(F)F)c(Nc2cc(Nc3ccc(C#N)cn3)ncn2)c1.O=C(O)C(F)(F)F (stereo not shown) [Example 324, 3-({6-[(5-cyano-2-pyridinyl)amino]-4-pyrimidinyl}amino)-N-methyl-4-[(2,2,2-trifluoro-1-methylethyl)oxy]benzenesulfonamide trifluoroacetate]
CNS(=O)(=O)c1cccc(Nc2cc(Nc3ccc(C(=O)O)cc3)ncn2)c1 [Example 349, 4-{[6-({3-[(methylamino)sulfonyl]phenyl}amino)-4-pyrimidinyl]amino}benzoic acid]
CCSc1ccc(S(=O)(=O)NC)cc1Nc1cc(Nc2ccc(C(C)C)cc2)ncn1 [Example 124, 4-(ethylthio)-3-(6-(4-isopropylphenylamino)pyrimidin-4-ylamino)-N-methylbenzenesulfonamide trifluoroacetate]
CNS(=O)(=O)c1cccc(Nc2cc(Nc3cc(C)cc(Br)c3)ncn2)c1.Cl [Example 85, 3-({6-[(3-bromo-5-methylphenyl)amino]-4-pyrimidinyl}amino)-N-methylbenzenesulfonamide hydrochloride]
CNS(=O)(=O)c1ccc2ccn(-c3cc(Nc4ccc(Cl)cc4)ncn3)c2c1 [Example 327, 1-{6-[(4-chlorophenyl)amino]-4-pyrimidinyl}-N-methyl-1H-indole-6-sulfonamide trifluoroacetate]
CNS(=O)(=O)c1cccc(Nc2cc(Nc3ccc4c(c3)CC(=O)N4)ncn2)c1 [Example 216, N-methyl-3-({6-[(2-oxo-2,3-dihydro-1H-indol-5-yl)amino]-4-pyrimidinyl}amino)benzenesulfonamide trifluoroacetate]
CNS(=O)(=O)c1cccc(Nc2cc(Nc3ccc4c(c3)CCC4)ncn2)c1 [Example 191, 3-[6-(indan-5-ylamino)-pyrimidin-4-ylamino]-N-methyl-benzenesulfonamide trifluoroacetate]
CNS(=O)(=O)c1ccc(OC)c(Nc2cc(Nc3ccc(-n4cccn4)cc3)ncn2)c1 [Example 40, N-methyl-4-(methyloxy)-3-[(6-{[4-(1H-pyrazol-1-yl)phenyl]amino}-4-pyrimidinyl)amino]benzenesulfonamide trifluoroacetate]
CNS(=O)(=O)c1cccc(Nc2cc(Nc3ccc4c(c3)N(C(C)=O)CC4)ncn2)c1 [Example 187, 3-[6-(1-acetyl-2,3-dihydro-1H-indol-6-ylamino)-pyrimidin-4-ylamino]-N-methyl-benzenesulfonamide trifluoroacetate]
CNS(=O)(=O)c1ccc(SC)c(Nc2cc(Nc3ccc4c(c3)N(C(C)=O)CC4)ncn2)c1 [Example 163, 3-(6-(1-acetylindolin-6-ylamino)pyrimidin-4-ylamino)-N-methyl-4-(methylthio)benzenesulfonamide trifluoroacetate]
CNS(=O)(=O)c1ccc(S(C)(=O)=O)c(Nc2cc(Nc3ccc4c(c3)CCCC4=O)ncn2)c1 [Example 198, 4-methanesulfonyl-N-methyl-3-[6-(5-oxo-5,6,7,8-tetrahydro-naphthalen-2-ylamino)-pyrimidin-4-ylamino]-benzenesulfonamide]
CNS(=O)(=O)c1cccc(Nc2cc(Nc3nncs3)ncn2)c1 [Example 277, N-methyl-3-{[6-(1,3,4-thiadiazol-2-ylamino)-4-pyrimidinyl]amino}benzenesulfonamide]
CNS(=O)(=O)c1cccc(Nc2cc(Nc3cccc(N4CCCC4)c3)ncn2)c1 [Example 213, N-methyl-3-[(6-{[3-(1-pyrrolidinyl)phenyl]amino}-4-pyrimidinyl)amino]benzenesulfonamide trifluoroacetate]
